# Values joined by “and” are separate entries in the source; they are usually repeats but may differ in a detail not shown here. Equal values may be shown once. Among all 300,000 compounds or so, about 3,700 (1.2%) were called active. Inconclusive means that the source gave no clear call. Such entries were picked first, then a sample of the others. Calls come from the whole dose curve; tested in HEK293 cells. Where the call is inconclusive, the potency comes from a doubtful curve fit.
# Assay: qHTS for Inhibitors of binding or entry into cells for Lassa Virus; note: nearly all actives have a fitted effect of over 50% in size
# Settings: Lassa virus pseudotype entry inhibition, cell reporter; activity change, negative = inhibition: at 37.9 µM (top of the series) unless noted
# % is set by controls: 0 for no effect and ±100 for the full control effect; potency is the fitted concentration of half-maximal effect.
Structure (SMILES),"activity change, negative = inhibition",Potency
Cc1ccc(S(=O)(=O)N2CCN(c3nc(C(C)C)c4c(c3C#N)CC(C)(C)OC4)CC2)cc1,inactive: -11.2%,–
COc1cc(/C=N/NC(=O)c2ccccc2)ccc1OS(=O)(=O)c1ccccc1,–,"inconclusive: 16.4 µM [inhibitor, single point]"
O=C(CCc1ccccc1)N=C1SC2CS(=O)(=O)CC2N1c1ccccc1F (stereo not given),inactive: -20.9% [at 46.1 µM],–
CCN(CC)CCNc1ccc(CO)c2sc3ccccc3c(=O)c12,–,"inconclusive: 35.3 µM [inhibitor, partial curve, poor fit] and inconclusive: 29.1 µM [inhibitor, single point]"
CCc1cc2c(C)ccc(C)c2nc1SCC(=O)Nc1c[nH]c(=O)[nH]c1=O,–,"inconclusive: 7.08 µM [inhibitor, partial curve, poor fit]"
CC(=O)c1c(C)[nH]c(C(=O)COc2ccc(C#N)cc2)c1C,inactive: -2.21%,–
Cn1c(-c2ccccc2)c(/C=N/NC(=O)c2cccnc2)c2ccccc21,–,"inconclusive: 22.4 µM [inhibitor, single point]"
C/C(=N\NC(=O)c1cccs1)c1cccnc1,inactive: -0.503%,–
O=C(COc1ccccc1)N(Cc1cccnc1)c1nc2c(F)cccc2s1,inactive: -17% [at 46.1 µM],–
COC(=O)c1c(NC(=O)c2ccco2)sc2c1CCC2,inactive: 8.81%,–
CCC(c1ccccc1)c1nc(-c2cccnc2)no1 (stereo not given),–,"inconclusive: 5.62 µM [activator, single point]"
CC(C)(C)C(=O)[C@@H]1[C@@H]2C(=O)N(C3CCCCC3)C(=O)[C@@H]2[C@H]2c3ccccc3C=CN12,inactive: 16.2%,–
CC(=O)N1CCc2cc(S(=O)(=O)NCCC(=O)N3CCN(Cc4ccccc4)CC3)ccc21,–,"inconclusive: 18.3 µM [inhibitor, single point]"
COc1cccc(CC(=O)OCC(=O)NCC(=O)Nc2cccc(C)c2C)c1,inactive: -2.45%,–
CC(=O)N1CCc2c(sc3nc(SCC(C)C)n(-c4ccc(C)c(Cl)c4)c(=O)c23)C1,–,"inconclusive: 25.1 µM [inhibitor, single point]"
CCOC(=O)N1CCN(S(=O)(=O)c2ccc(C(=O)NNc3nc4cc(C)cc(C)c4s3)cc2)CC1,–,"inconclusive: 29.1 µM [inhibitor, single point]"
COc1ccc(C(C(=O)NC2CCCC2)N(Cc2ccccc2)C(=O)CNC(=O)c2ccco2)cc1 (stereo not given),–,"inconclusive: 3.16 µM [activator, partial curve, poor fit]"
CCOC(=O)c1oc2nc3c(cc2c1N)COC(C)(C)C3,inactive: 4.94%,–
CC(C)(C)c1ccc(/C=N/NC(=O)Cc2c[nH]c3ccccc23)cc1,–,"inconclusive: 2.59 µM [inhibitor, full curve, poor fit]"
COc1ccc(NC(=S)Nc2cc(-c3ccccc3)[nH]n2)cc1Cl,–,"inconclusive: 4.11 µM [inhibitor, full curve]"
Cc1ccc(S(=O)(=O)N2CCN(C(=O)CCNC(=O)c3ccccc3Cl)CC2)cc1,–,"inconclusive: 1.41 µM [inhibitor, partial curve, poor fit]"
CCOC(=O)/C=C/C(=O)Nc1cccc([N+](=O)[O-])c1,–,"inconclusive: 15.8 µM [inhibitor, single point]"

Structure (SMILES),"activity change, negative = inhibition",Potency
Cc1ccccc1CNC(=O)C1=Cc2ccccc2OC1,inactive: 18.4% [at 46.1 µM],–
COc1cc(C2C(C#N)=C(N)Oc3cc(C)n(CCN4CCOCC4)c(=O)c32)cc(OC)c1OC (stereo not given),inactive: 0.316%,–
Cc1ccc(C(=O)NNc2ncnc3ccccc23)cc1,–,"inconclusive: 1.03 µM [activator, full curve, poor fit]"
CCc1ccccc1NC(=O)c1cc(S(=O)(=O)N2CCc3ccccc32)ccc1F,–,"inconclusive: 6.31 µM [inhibitor, single point]"
COC(=O)CNC(=O)Cn1nc(C)c([N+](=O)[O-])c1C,inactive: -2.97%,–
Cc1ccc(Cl)cc1NC(=O)C1COc2ccccc2O1 (stereo not given),–,"inconclusive: 0.891 µM [activator, full curve, poor fit]"
Cc1cc(SCC(=O)NCC(c2cccs2)N2CCOCC2)c(C)cc1Br (stereo not given),–,"inconclusive: 7.94 µM [inhibitor, partial curve, poor fit]"
CN(Cc1cnc2nc(N)nc(N)c2n1)c1ccc(C(=O)N[C@@H](CCC(=O)O)C(=O)O)cc1,–,"inconclusive: 0.231 µM [inhibitor, partial curve, poor fit]"
C#CC(C)(CC)NC(=O)Cn1nnc(-c2ccc(OCc3ccccc3C)cc2)n1 (stereo not given),–,"inconclusive: 22.4 µM [inhibitor, partial curve, poor fit]"
COc1ccccc1N1CCN(C(=O)c2cnn(-c3cccc(Cl)c3)c2C2CCN(C(=O)OC(C)(C)C)CC2)CC1,–,"inconclusive: 1.26 µM [inhibitor, full curve, poor fit]"
Cc1cc(NC(=O)CSc2nnc(-c3ccccc3F)n2N)no1,–,"inconclusive: 1.26 µM [inhibitor, single point]"
CCCN(CCC)CCCNC(=O)c1cnn(-c2ccc(F)cc2)c1-n1cccc1,–,"inconclusive: 3.16 µM [activator, partial curve, poor fit]"
Cc1cc(Cl)ccc1NC(=S)NCC(C)C,inactive: 0.0895%,–
O=C(Cc1cccs1)NC1C(=O)N2C(C(=O)[O-])=C(C[n+]3ccccc3)CSC12 (stereo not given),–,"inconclusive: 9.96 µM [activator, single point]"
Cc1cccc(N2CCN(C(=O)c3cccs3)CC2)c1C,–,"inconclusive: 17.8 µM [inhibitor, single point]"
COc1cc(/C=C(\C#N)c2nc3ccccc3[nH]2)ccc1OCc1ccc(F)cc1,inactive: -5.75% [at 46.1 µM],–
COc1cc(-c2nc(SCC(=O)Nc3ccc(C)cc3)c(-c3ccc(F)cc3)[nH]2)cc(OC)c1OC,–,"inconclusive: 10 µM [inhibitor, partial curve, poor fit]"
COc1cc(N2CCCC2)c(OC)cc1/C=C(/C#N)c1ccc(Br)cc1,–,"inconclusive: 29.1 µM [inhibitor, partial curve, poor fit]"
Cc1nn(C(C)C(=O)Nc2ccc(C(C)C)cc2)c(=O)c2c1sc1ccccc12 (stereo not given),–,"inconclusive: 14.1 µM [activator, single point]"
O=C(Nc1scc(-c2ccc(Br)cc2)c1C(=O)O)c1ccccc1F,–,"inconclusive: 3.98 µM [inhibitor, partial curve, poor fit]"
O=c1cc(CSc2ncn[nH]2)[nH]c2ccc(F)cc12,–,"inconclusive: 35.5 µM [activator, single point]"
Cc1ccc(/C=N/NC(=O)c2csc(C)c2)o1,–,"inconclusive: 2.59 µM [inhibitor, partial curve, poor fit]"

# Single records, as listed above:
# CN(Cc1cnc2nc(N)nc(N)c2n1)c1ccc(C(=O)N[C@@H](CCC(=O)O)C(=O)O)cc1 as listed: Potency: inconclusive: 0.231 µM [inhibitor, partial curve, poor fit]
# Cc1ccccc1CNC(=O)C1=Cc2ccccc2OC1 as listed: activity change, negative = inhibition: inactive: 18.4% [at 46.1 µM]
# COc1ccccc1N1CCN(C(=O)c2cnn(-c3cccc(Cl)c3)c2C2CCN(C(=O)OC(C)(C)C)CC2)CC1 as listed: Potency: inconclusive: 1.26 µM [inhibitor, full curve, poor fit]
# Cc1ccc(Cl)cc1NC(=O)C1COc2ccccc2O1 (stereo not given) as listed: Potency: inconclusive: 0.891 µM [activator, full curve, poor fit]

# Continued:

Structure (SMILES),"activity change, negative = inhibition",Potency
CCCCOc1ccc(C(=O)NNC(=S)NC(=O)CC)cc1,–,"inconclusive: 22.4 µM [inhibitor, partial curve, poor fit]"
O=C(Nc1ccc(N2CCOCC2)cc1)c1ccc(COc2ccccc2)cc1,inactive: 11.5% [at 46.1 µM],–
O=c1oc2ccccc2c(O)c1C(c1ccc([N+](=O)[O-])cc1)c1c(O)c2ccccc2oc1=O,–,"inconclusive: 10 µM [inhibitor, partial curve, poor fit]"
Cc1cc(=O)oc2cc(OCC(=O)NCc3ccco3)ccc12,inactive: 4.55%,–
CCCC(=O)N1CCC(O)(c2cccc(F)c2)CC1,inactive: 6.6%,–
CN(CC(=O)NCc1ccc(Cl)cc1)S(=O)(=O)c1ccc2[nH]c3c(c2c1)CCCC3,–,"inconclusive: 10 µM [inhibitor, partial curve, poor fit]"
CC(C(=O)O)N1c2cccc3cccc(c23)S1(=O)=O (stereo not given),inactive: 15.2% [at 46.1 µM],–
Cc1ccc(NC(=O)/C(C#N)=C/c2cccs2)c(C)c1,–,"inconclusive: 0.316 µM [activator, full curve]"
Cc1ccc(-c2noc(CN3CCCCC3)n2)cc1,–,"inconclusive: 3.26 µM [activator, partial curve, poor fit]"
CCn1c(SCc2ccccc2C)nc(=O)c2c(C(=O)OC)cc(C3CC3)nc21,–,"inconclusive: 5.01 µM [inhibitor, full curve, poor fit]"
Cc1occc1C(=O)N=Nc1c(O)n(C)c2ccccc12,–,"inconclusive: 0.1 µM [activator, full curve, poor fit]"
Cc1ccc2c(c1)c1c(c(=O)n(-c3cccc(Cl)c3)c(=O)n1CC(=O)NCCC1=CCCCC1)n2C,inactive: -0.283% [at 46.1 µM],–
COc1ccccc1CNC(=O)CCC1N=C2c3ccccc3N=C(SCC(=O)Nc3ccc(F)cc3)N2C1=O (stereo not given),inactive: -15.1% [at 46.1 µM],–
COc1cccc(N2CCN(CC(=O)NCc3cccs3)CC2)c1,–,"inconclusive: 11.2 µM [inhibitor, partial curve, poor fit]"
CC(C)CC1(C(=O)NCc2cc(F)cc(C(F)(F)F)c2)C=CCN1C(=O)c1ccccc1 (stereo not given),inactive: -0.617%,–
CCOc1ccc(C(=O)CN2CCN(S(=O)(=O)c3ccc(Cl)cc3)CC2)cc1,inactive: -6.6%,–
Cc1ccc(-c2cc(C(=O)N3CCCc4ccccc43)c3ccccc3n2)cc1,inactive: -25.7%,–
CCCc1cc(=O)n2c(C(=O)Nc3ccc(OCC)cc3)c(C(=O)Nc3ccc(C)cc3)sc2n1,–,"inconclusive: 1.58 µM [inhibitor, partial curve, poor fit]"
COc1ccc(NC(=O)CCS(=O)(=O)c2nc(-c3cccs3)cc(C(F)(F)F)n2)cc1,–,"inconclusive: 28.2 µM [inhibitor, single point]"
CC(C)C(NS(=O)(=O)c1ccc(Br)s1)C(=O)O (stereo not given),–,"inconclusive: 7.94 µM [activator, partial curve, poor fit]"
O=c1cc2c(nn1Cc1ccc(Cl)cc1Cl)-c1ccccc1CC2,–,"inconclusive: 6.31 µM [activator, single point]"

# — PubChem BioAssay AID540256 (National Center for Advancing Translational Sciences (NCATS), 2011)
